In patent US12590134B2 (Sinopep-Allsino Biopharmaceutical Co., Ltd., priority 2020, dated 2026):

Assay: general procedure: Fmoc solid-phase peptide synthesis; Fmoc-Gly-Wang resin
Conditions: whole synthesis, 214 nm

## HX2EGTFTSDVSSYLEX2QAAK(HOOC-(CH2)16-CO-γ-Glu-AEEA-AEEA)EFIAWLVRGRG
  final HPLC purity: larger than 98.0%
